The target in assay [1] is T1, endogenous SIRT1 (mouse (endogenous in NSC-34)) (UniProt Q923E4).
T1 sequence: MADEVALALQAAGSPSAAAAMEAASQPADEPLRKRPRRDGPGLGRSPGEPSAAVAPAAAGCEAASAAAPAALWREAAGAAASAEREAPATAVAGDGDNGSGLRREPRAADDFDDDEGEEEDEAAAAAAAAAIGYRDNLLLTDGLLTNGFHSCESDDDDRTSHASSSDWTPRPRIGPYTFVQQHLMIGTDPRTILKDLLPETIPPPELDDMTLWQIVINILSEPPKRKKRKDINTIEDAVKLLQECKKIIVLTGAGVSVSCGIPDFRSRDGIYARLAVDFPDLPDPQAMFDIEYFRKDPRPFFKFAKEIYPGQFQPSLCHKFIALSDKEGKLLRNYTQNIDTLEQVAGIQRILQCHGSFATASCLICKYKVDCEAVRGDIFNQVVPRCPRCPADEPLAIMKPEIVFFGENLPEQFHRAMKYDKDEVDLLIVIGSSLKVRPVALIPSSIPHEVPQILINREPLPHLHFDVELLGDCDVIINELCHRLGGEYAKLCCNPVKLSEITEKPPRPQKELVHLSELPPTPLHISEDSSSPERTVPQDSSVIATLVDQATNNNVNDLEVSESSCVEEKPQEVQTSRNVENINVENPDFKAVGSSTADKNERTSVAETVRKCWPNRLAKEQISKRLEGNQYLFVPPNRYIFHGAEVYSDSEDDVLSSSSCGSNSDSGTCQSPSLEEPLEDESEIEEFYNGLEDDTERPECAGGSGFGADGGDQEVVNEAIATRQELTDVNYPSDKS
Kind of assay: co-IP; endogenous proteins in NSC‐34 cells; the endogenous sirtuin precipitated, endogenous GARS detected by blot.

For assay [2], the target named is T2, endogenous SIRT2 of NSC‐34 cells (mouse (endogenous in NSC-34)) (UniProt Q8VDQ8).
T2 sequence: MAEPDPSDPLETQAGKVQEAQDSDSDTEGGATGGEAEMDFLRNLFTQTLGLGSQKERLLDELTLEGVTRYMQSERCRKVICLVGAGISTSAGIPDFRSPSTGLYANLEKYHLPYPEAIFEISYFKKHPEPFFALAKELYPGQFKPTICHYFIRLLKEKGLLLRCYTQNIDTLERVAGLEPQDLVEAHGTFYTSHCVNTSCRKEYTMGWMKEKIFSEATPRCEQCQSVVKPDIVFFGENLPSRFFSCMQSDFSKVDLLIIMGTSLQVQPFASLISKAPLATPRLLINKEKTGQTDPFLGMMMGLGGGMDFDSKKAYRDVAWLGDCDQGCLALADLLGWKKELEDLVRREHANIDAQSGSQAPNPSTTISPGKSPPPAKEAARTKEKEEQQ
The assay is described as above.

No constants are given. Whether binding was seen depends on the method and setting. In cells and extracts the contact can be indirect. Some entries that bind do so weakly or less than the wild type.

B1: endogenous glycyl‐tRNA synthetase (GARS) of NSC‐34 cells (enzyme, UniProt Q9CZD3 34-729)
chain: LSAPAQPAASRSSMDSAEELLAPLRLAVRQQGDFVRKLKEDKAPQVDVDRAVAELKARKRVLEAKELALQPKDDIVDRAKMEDTLKRRFFYDQAFAIYGGVSGLYDFGPVGCALKNNIIQAWRQHFIQEEQILEIDCTMLTPEPVLKTSGHVDKFADFMVKDVKNGECFRADHLLKAHLQKLMSDKKCSAEKKSEMESVLAQLDNYGQQELADLFVNYNVKSPTTGNDLSPPVPFNLMFQTFIGPGGNMPGYLRPETAQGIFLNFKRLLEFNQGKLPFAAAQIGNSFRNEISPRSGLIRVREFTMAEIEHFVDPTEKDHPKFQSVADLCLYLYSAKAQVTGQSARKMRLGDAVEQGVINNSVLGYFIGRIYLYLTKVGISPDKLRFRQHMENEMAHYACDCWDAESKTSYGWIEIVGCADRSCYDLSCHARATKVPLVAEKPLKEPKTVNVVQFEPNKGAVGKAYKKDAKLVLEYLSACDECYISEMELLLSEKGEFTIETEGKTFQLTKDMVSVKRFQKTLHVEEVVPSVIEPSFGLGRIMYTILEHTFHVREGDEQRTFFSFPAVVAPFKCSVLPLSQNQEFMPFVKELSEALTRNGVSHKVDDSSGSIGRRYARTDEIGVAFGITIDFDTVNKTPHTATLRDRDSMRQIRAEVSELPNVVRDLANGNITWADVEARYPLFEGQETGKKETVEE
In the case of B1, the binding entry in assay [1] is “no binding”; in assay [2], “binds”.
